Test results reported in paper PMC12561351.

Biological target: p62 (bait of the mass spectrometry analysis) (UniProt Q13501)
Experiment: affinity purification with mass spectrometry; mass spectrometry analysis of p62 interacting proteins following copper chelation; hits intersected with the E3 Ligases (NHLBI) and UbiBrowser datasets

binding: binds
Substance: SMURF2 (hit of the p62 mass spectrometry analysis) (from UniProt Q9HAU4 1-748) (enzyme)

These are yes or no findings as the source states them, for the method shown. In cells and extracts the contact can be indirect. A yes stands for co-enrichment or nearness to the bait. Other partners may have been found.
